“And” between values parts separate entries of the source, which are not always exact repeats. Identical values can stand only once. Counter-ions that a name gives are not always drawn. This is one part of the list. Most values lie at the level of the controls, where differences are scatter.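 Differential scanning fluorimetry gave melting temperatures in a one-replicate pilot screen of a library of approved drugs plus clinical or known-target compounds. Hits increasing melting point at least 2 °C were the strongest stabilizers, while negative shifts signify destabilization.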
tested on: SARS-CoV-2 main protease (Mpro, nsp5); assay: thermal shift ΔTm of Mpro relative to plate average Tm; higher = stronger thermal stabilization of Mpro (binding); conditions: 10 µM; protein concentration 1 µM

Row | Compound | thermal shift ΔTm of Mpro
1 | Cc1ncc(CCCN(C)C)cc1Nc1ncc2c(n1)-c1ccc(C(F)(F)F)cc1NC(=S)C2 | -0.00254 °C
2 | Oc1ccc(/C=C/c2cc(O)cc(O)c2)cc1 [Resveratrol] | 0.576 °C
3 | CCN(CC)Cc1ccc(C(=O)N(CCc2ccccc2OC)[C@@H]2CCNC2)cc1 | 0.00759 °C
4 | CCOC(=O)C1=C(COCCN)NC(C)=C(C(=O)OC)C1c1ccccc1Cl (configuration not stated) [Amlodipine] | 0.00626 °C
5 | CCOC(=O)C1=C(COCCN)NC(C)=C(C(=O)OC)C1c1ccccc1Cl (configuration not stated) [Amlodipine besylate (Norvasc)] | 0.00728 °C
6 | Cc1cc(/C=C/C#N)cc(C)c1Nc1ccnc(Nc2ccc(C#N)cc2)n1 [Rilpivirine] | 0.409 °C
7 | Cc1c(N(C)C)c(=O)n(-c2ccccc2)n1C [Amidopyrine] | -0.15 °C
8 | CCOc1cc2ncc(C#N)c(Nc3ccc(F)c(Cl)c3)c2cc1NC(=O)/C=C/CN(C)C [Pelitinib (EKB-569)] | 0.314 °C
9 | C=C1C(=O)[C@]23[C@H](O)[C@H]1CC[C@H]2[C@@]12CO[C@]3(O)[C@@H](O)[C@@H]1C(C)(C)CC[C@@H]2O [Oridonin] | -0.585 °C
10 | CC(C(=O)O)c1ccc2c(c1)[nH]c1ccc(Cl)cc12 (configuration not stated) [Carprofen] | 0.0132 °C
11 | COc1ccc(CCC(=O)O)cc1OC [3,4-Dimethoxyhydrocinnamic acid] | -0.252 °C
12 | CO/N=C(\C(=O)N[C@@H]1C(=O)N2C(C(=O)O)=C(CSc3nnnn3C)CS[C@H]12)c1csc(N)n1 [Cefmenoxime hydrochloride] | 0.257 °C
13 | NCCNc1ncc(C(N)=O)c(Nc2cccc(C(F)(F)F)c2)n1 [Syk Inhibitor II (hydrochloride)] | -0.124 °C
14 | C=CCc1cccc(/C=N/NC(=O)CN2CCN(Cc3ccccc3)CC2)c1O | -0.171 °C
15 | O=C1c2c(O)cccc2C([C@@H]2O[C@H](CO)[C@@H](O)[C@H](O)[C@H]2O)c2cc(CO)cc(O)c21 (some centres not stated) [Aloin] | 0.0194 °C
16 | O=C(Nc1cccc(C(F)(F)F)c1)Nc1cc(S(=O)(=O)NC2CC2)ccc1-c1ccsc1 | 0.557 °C
17 | Cc1noc2c1-c1ccccc1C(c1ccc(Cl)cc1)=N[C@H]2CC(N)=O | 0.299 °C
18 | O=C(Nc1cc(Oc2cc(F)c(NC(=O)C3(C(=O)Nc4ccc(F)cc4)CC3)cc2F)ccn1)C1CC1 [Altiratinib] | 0.0907 °C
19 | CNCC(=O)OCc1cccnc1N(C)C(=O)OC(C)[n+]1cnn(C[C@](O)(c2cc(F)ccc2F)[C@@H](C)c2nc(-c3ccc(C#N)cc3)cs2)c1 (some centres not stated) [Isavuconazonium sulfate] | -0.0209 °C
20 | Cc1ccccc1C(=O)Nc1ccc(C(=O)N2CCCC(O)c3cc(Cl)ccc32)c(C)c1 (configuration not stated) [Tolvaptan] | -0.0958 °C
21 | CC(=O)O[C@H]1CC[C@@]2(C)C(=CC[C@@H]3[C@@H]2CC[C@]2(C)C(c4cccnc4)=CC[C@@H]32)C1 [Abiraterone Acetate] | -0.566 °C
22 | O=C1NC(=NCc2cccs2)S/C1=C\c1ccc2ncccc2c1 | -0.183 °C
23 | Nc1nc2[nH]cnc2c(=S)[nH]1 [Thioguanine] | -0.00517 °C
24 | C=CC(=O)Nc1cc(Nc2ncc(C(=O)Nc3cc(NC(=O)c4cc(OC)c(OC)c(OC)c4)ccc3C)c(NC)n2)ccc1C | 0.0692 °C

Row | Compound | thermal shift ΔTm of Mpro
25 | NC(=O)c1ccc(-c2nc(-c3ccc4c(c3)OCCO4)c(-c3ccccn3)[nH]2)cc1 | 1.34 °C
26 | CC(C)c1cc2c(cc1S(=O)(=O)O)[C@@]1(C)CCC[C@@](C)(C(=O)O)[C@@H]1CC2 [Ecabet Sodium] | 0.106 °C
27 | CC[C@H]1OC(=O)[C@H](C)[C@@H](O[C@H]2C[C@@](C)(OC)[C@@H](O)[C@H](C)O2)[C@H](C)[C@@H](O[C@@H]2O[C@H](C)C[C@H](N(C)C)[C@H]2O)[C@](C)(O)C[C@@H](C)C(=O)[C@H](C)[C@H]2OC(=O)O[C@@]21C [Erythromycin Cyclocarbonate] | 0.0467 °C
28 | Cc1c(OCC(F)(F)F)ccnc1C[S@@+]([O-])c1nc2ccccc2[nH]1 [Dexlansoprazole] | -0.205 °C
29 | COc1ccc2c(c1)Nc1ccccc1S2 [2-Methoxyphenothiazine] | 0.0203 °C
30 | O=C(OCC(O)CO)c1ccccc1Nc1ccnc2cc(Cl)ccc12 (configuration not stated) [Glafenine Hydrochloride] | -0.177 °C
31 | O=C(OCC(O)CO)c1ccccc1Nc1ccnc2cc(Cl)ccc12 (configuration not stated) [Glafenine] | 0.0874 °C
32 | CC(C(=O)O)c1ccc(-c2ccccc2)c(F)c1 (configuration not stated) [Flurbiprofen] | 0.0698 °C and -0.124 °C
33 | NC(=O)c1cn(Cc2c(F)cccc2F)nn1 [Rufinamide] | 0.222 °C
34 | Cc1cc(O)c2c(c1)C(=O)c1cccc(O)c1C2=O [Chrysophanic Acid] | -0.0142 °C
35 | CN(C)CCN1C(=O)c2cccc3cc(NC(N)=O)cc(c23)C1=O | 0.0149 °C
36 | C[C@H]1O[C@@H](O[C@H]2[C@@H](O)C[C@H](O[C@H]3[C@@H](O)C[C@H](O[C@H]4CC[C@@]5(C)[C@H](CC[C@@H]6[C@@H]5C[C@@H](O)[C@]5(C)[C@@H](C7=CC(=O)OC7)CC[C@]65O)C4)O[C@@H]3C)O[C@@H]2C)C[C@H](O)[C@@H]1O [Digoxin] | -0.0445 °C
37 | NS(=O)(=O)c1cc2c(cc1Cl)NC(C(Cl)Cl)NS2(=O)=O (configuration not stated) [Trichlormethiazide] | 0.0572 °C
38 | CN[C@@H]1[C@H](O)[C@H](NC)[C@H]2O[C@@]3(O)C(=O)C[C@@H](C)O[C@H]3O[C@@H]2[C@H]1O [Spectinomycin HCl] | -0.00329 °C
39 | NC(=O)c1cnc(N[C@@H]2CCCC[C@@H]2N)nc1Nc1cccc(-n2nccn2)c1 | -0.0938 °C and 0.168 °C
40 | CC[C@@](C)(Nc1ccnc(-c2c[nH]c3ncccc23)n1)C(=O)NCC(F)(F)F [Decernotinib] | 0.131 °C
41 | Cc1onc(-c2ccccc2Cl)c1C(=O)N[C@@H]1C(=O)N2[C@@H]1SC(C)(C)[C@@H]2C(=O)O [Cloxacillin Sodium] | 0.0358 °C
42 | COc1ccc(Cn2ccc3ccc(C(=O)NO)cc32)cc1 | 0.0141 °C
43 | C#Cc1cccc(Nc2ncnc3cc(OCCOC)c(OCCOC)cc23)c1 [Erlotinib HCl (OSI-744)] | -0.102 °C
44 | C#Cc1cccc(Nc2ncnc3cc(OCCOC)c(OCCOC)cc23)c1 [Erlotinib] | 0.0286 °C
45 | COC(=O)C1=CO[C@@H](O[C@@H]2O[C@H](CO)[C@@H](O)[C@H](O)[C@H]2O)[C@@H]2C(CO)=CC[C@H]12 [Geniposide] | 0.00479 °C
46 | CCN(CC)CCOC(=O)c1ccc(N)cc1Cl [Chloroprocaine HCl] | -0.0867 °C
47 | NC(=O)c1cccc(-c2cc(Nc3ccc(OC(F)(F)F)cc3)ncn2)c1 | 1.08 °C
48 | Cc1cc(C)c(CNC(=O)c2cc(-c3ccc(CN4CCOCC4)cc3)cc3c2cnn3C2CCCC2)c(=O)[nH]1 | -0.0859 °C

Row | Compound | thermal shift ΔTm of Mpro
49 | CC(=O)N[C@@H]1C[C@H](NC(C)(C)C)CC[C@@H]1N1CC[C@H](Nc2ncnc3cc(C(C)(C)C)nn23)C1=O | 0.0588 °C
50 | NC(=O)CN1CC(O)CC1=O (configuration not stated) [Oxiracetam] | 0.127 °C
51 | C[C@H](N=C(NC#N)Nc1cccc2ncccc12)c1ccccc1 | -0.0285 °C
52 | CC/C(=C(\c1ccc(O)cc1)c1ccc(OCCN(C)C)cc1)c1ccccc1 [4-Hydroxytamoxifen] | -0.192 °C
53 | CCN(CC)CCNc1ccc(C)c2sc3ccccc3c(=O)c12 [Lucanthone] | -0.0719 °C
54 | CC1(C)O[C@H]2CC(=O)OC[C@]23[C@H]2CC[C@@]4(C)[C@H](c5ccoc5)OC(=O)[C@H]5O[C@]54[C@]2(C)C(=O)C[C@@H]13 [Limonin] | -0.123 °C
55 | Cc1c(-c2ccccc2)oc2c(C(=O)OCCN3CCCCC3)cccc2c1=O [Flavoxate HCl] | 0.0574 °C
56 | CCCCCCOC(=O)NC(=N)c1ccc(NCc2nc3cc(C(=O)N(CCC(=O)OCC)c4ccccn4)ccc3n2C)cc1 [Dabigatran Etexilate] | -0.0516 °C
57 | O=C(OC1C[C@@H]2CC3C[C@H](C1)N2CC3=O)c1c[nH]c2ccccc12 (some centres not stated) [Dalasetron Mesylate Hydrate] | 0.0546 °C
58 | Cc1ccc(-c2nn(C(C)(C)C)c3ncnc(N)c23)cc1 | 0.0188 °C
59 | NS(=O)(=O)c1ccc(NC2=CC(=O)c3ccccc3C2=O)cc1 | -0.0851 °C
60 | CC(=O)NC(Cc1ccccc1)C(=O)O (configuration not stated) [Afalanine] | 0.318 °C
61 | CC(C)C[C@@H](C(=O)N[C@H](C(=O)OC1CCCC1)c1ccccc1)[C@H](O)C(=O)NO [Tosedostat] | -0.0141 °C
62 | COc1ccc(O)cc1 [Mequinol] | -0.394 °C
63 | CCN(CC)CCNC(=O)c1cc(Cl)c(N)cc1OC [MetoclopraMide HCl] | -0.0255 °C
64 | CCOc1ccc2ccccc2c1C(=O)N[C@@H]1C(=O)N2[C@@H]1SC(C)(C)[C@@H]2C(=O)O [Nafcillin Sodium] | -0.0582 °C
65 | C[CH2][Hg][S]c1ccccc1C(=O)[O-].[Na+] [Thimerosal] | -3.12 °C
66 | N#C/C(=C\c1cn(-c2ccccc2)c2ccccc12)C(=O)O | 0.236 °C
67 | CC1=NN(c2ccccc2)C(=O)C1 [Edaravone] | 0.269 °C
68 | O=C(O)CCNC(=O)c1ccccc1 [Betamipron] | 0.0173 °C
69 | O=C(N[C@H](CO)[C@H](O)c1ccc([N+](=O)[O-])cc1)C(Cl)Cl [Chloramphenicol] | -0.00128 °C
70 | CCC[C@@H]1C[C@@H](C(=O)N[C@@H]([C@H]2O[C@H](SC)[C@H](O)[C@@H](O)[C@H]2O)[C@H](C)Cl)N(C)C1 [Clindamycin] | -0.19 °C
71 | CCC[C@@H]1C[C@@H](C(=O)N[C@@H]([C@H]2O[C@H](SC)[C@H](O)[C@@H](O)[C@H]2O)[C@H](C)Cl)N(C)C1 [Clindamycin HCl] | -0.00193 °C
72 | CO[C@H]1/C=C\C=C(/C)C(=O)NC2=CC(=O)C(NCCN(C)C)=C(C[C@@H](C)C[C@H](OC)[C@H](O)[C@@H](C)/C=C(\C)[C@@H]1OC(N)=O)C2=O [17-DMAG (Alvespimycin) HCl] | -0.11 °C
